Source: US20240350586A1
No constants are given. Whether binding was seen depends on the method and setting. For part of these data: In cells and extracts the contact can be indirect. Some results given as binding are weak or reduced against the parent protein; the word gives no strength. For part of these data: Sequences can lack the tags named with a protein. Values belong to the binder of their own block, whether it stands above or below them.

Protein sequences, listed by entry. Tags and fused reporters are not part of them. Lines headed by an entry give the natural chain unless they say otherwise; changes in a name come on top. Residues count along the entry.
UniProt Q9BXW4: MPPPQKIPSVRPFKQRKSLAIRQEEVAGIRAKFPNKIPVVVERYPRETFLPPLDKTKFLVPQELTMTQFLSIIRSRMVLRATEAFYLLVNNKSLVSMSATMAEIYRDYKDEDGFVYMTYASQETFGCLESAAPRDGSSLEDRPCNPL
T7-LC3C (expressed in cells): residues 1-126 of Q9BXW4

How the values were obtained:
[1] = biological target: His-T7-LC3C (purified protein) (UniProt Q9BXW4); experiment: in vitro pull-down of purified GST-CCT2s and His-T7-LC3C
[2] = biological target: His-T7-LC3C (purified protein) (UniProt Q9BXW4); experiment: pull-down of gel-filtration fraction F17 with His-T7-LC3C on Ni sepharose
[3] = biological target: T7-LC3C (expressed in cells) (UniProt Q9BXW4); experiment: Duolink PLA

binding [1]: binds
B1: GST-HA-CCT2 (purified, wild type) (protein, not shown: a dimerising Fc or GST)
chain: ASLSLAPVNIFKAGADEERAETARLTSFIGAIAIGDLVKSTLGPKGMDKILLSSGRDASLMVTNDGATILKNIGVDNPAAKVLVDMSRVQDDEVGDGTTSVTVLAAELLREAESLIAKKIHPQTIIAGWREATKAAREALLSSAVDHGSDEVKFRQDLMNIAGTTLSSKLLTHHKDHFTKLAVEAVLRLKGSGNLEAIHIIKKLGGSLADSYLDEGFLLDKKIGVNQPKRIENAKILIANTGMDTDKIKIFGSRVRVDSTAKVAEIEHAEKEKMKEKVERILKHGINCFINRQLIYNYPEQLFGAAGVMAIEHADFAGVERLALVTGGEIASTFDHPELVKLGSCKLIEEVMIGEDKLIHFSGVALGEACTIVLRGATQQILDEAERSLHDALCVLAQTVKDSRTVYGGGCSEMLMAHAVTQLANRTPGKEAVAMESYAKALRMLPTIIADNAGYDSADLVAQLRAAHSEGNTTAGLDMREGTIGDMAILGITESFQVKRQVLLSAAEAAEVILRVDNIIKAAPRKRVPDHHPC

binding [2]: binds
B2: CCT2 in the monomer fraction (F17) of gel-filtered HEK293T cell lysate (protein)
chain: ASLSLAPVNIFKAGADEERAETARLTSFIGAIAIGDLVKSTLGPKGMDKILLSSGRDASLMVTNDGATILKNIGVDNPAAKVLVDMSRVQDDEVGDGTTSVTVLAAELLREAESLIAKKIHPQTIIAGWREATKAAREALLSSAVDHGSDEVKFRQDLMNIAGTTLSSKLLTHHKDHFTKLAVEAVLRLKGSGNLEAIHIIKKLGGSLADSYLDEGFLLDKKIGVNQPKRIENAKILIANTGMDTDKIKIFGSRVRVDSTAKVAEIEHAEKEKMKEKVERILKHGINCFINRQLIYNYPEQLFGAAGVMAIEHADFAGVERLALVTGGEIASTFDHPELVKLGSCKLIEEVMIGEDKLIHFSGVALGEACTIVLRGATQQILDEAERSLHDALCVLAQTVKDSRTVYGGGCSEMLMAHAVTQLANRTPGKEAVAMESYAKALRMLPTIIADNAGYDSADLVAQLRAAHSEGNTTAGLDMREGTIGDMAILGITESFQVKRQVLLSAAEAAEVILRVDNIIKAAPRKRVPDHHPC

binding [3]: binds
B3: V5-CCT2 (protein)
chain: GKPIPNPLLGLDSTASLSLAPVNIFKAGADEERAETARLTSFIGAIAIGDLVKSTLGPKGMDKILLSSGRDASLMVTNDGATILKNIGVDNPAAKVLVDMSRVQDDEVGDGTTSVTVLAAELLREAESLIAKKIHPQTIIAGWREATKAAREALLSSAVDHGSDEVKFRQDLMNIAGTTLSSKLLTHHKDHFTKLAVEAVLRLKGSGNLEAIHIIKKLGGSLADSYLDEGFLLDKKIGVNQPKRIENAKILIANTGMDTDKIKIFGSRVRVDSTAKVAEIEHAEKEKMKEKVERILKHGINCFINRQLIYNYPEQLFGAAGVMAIEHADFAGVERLALVTGGEIASTFDHPELVKLGSCKLIEEVMIGEDKLIHFSGVALGEACTIVLRGATQQILDEAERSLHDALCVLAQTVKDSRTVYGGGCSEMLMAHAVTQLANRTPGKEAVAMESYAKALRMLPTIIADNAGYDSADLVAQLRAAHSEGNTTAGLDMREGTIGDMAILGITESFQVKRQVLLSAAEAAEVILRVDNIIKAAPRKRVPDHHPC
